From patent publication US10004828B2, “Self-assembled Fmoc-ff hydrogels” (Romat at Tel-Aviv University Ltd., priority 2005, dated 2018)
Where a SMILES comes first, the peptide text is derived from it. The star is where a group is joined. Fmoc = O=C(OCC1c2ccccc2-c2ccccc21)*

Assay: Fluorescent molecule encapsulation and release from the hydrogel

Row | Compound | size of particles retained within the hydrogel cavities [kDA] | release of encapsulated fluorescent molecule from the gel into covering water (Fmoc-diphenylalanine hydrogel formed with 50 μM fluorescent molecule, 1.5 ml water on top)
1 | O=C(N[C@@H](Cc1ccccc1)C(=O)N[C@@H](Cc1ccccc1)C(=O)O)OCC1c2ccccc2-c2ccccc21 [Fmoc-Phe-Phe, Fmoc-diphenylalanine] (Fmoc-Phe-Phe-OH) | ≥ 5 | –
2 | Insulin-FITC: fluorescent Insulin-FITC, molecular mass of 5733 Da, encapsulated in the gel [reference compound] | – | retained in the gel
